The full ranking holds about 33,000 sequences; the median of “E-score (-0.5 to 0.5)” is about -0.0059, and the highest 2% start at about 0.26. Some of the results follow.
Target: T1, Cin5 (UniProt P40917)
T1 sequence: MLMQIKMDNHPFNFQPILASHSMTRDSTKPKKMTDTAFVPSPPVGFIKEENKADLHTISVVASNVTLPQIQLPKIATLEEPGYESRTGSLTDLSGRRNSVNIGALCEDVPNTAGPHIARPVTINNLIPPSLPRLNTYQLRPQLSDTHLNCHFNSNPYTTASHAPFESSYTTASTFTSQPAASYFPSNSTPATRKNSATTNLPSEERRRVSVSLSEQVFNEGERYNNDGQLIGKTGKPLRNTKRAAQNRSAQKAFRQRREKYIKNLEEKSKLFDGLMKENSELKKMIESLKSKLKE
Assay: PBM E-score (8-mer binding enrichment) (E-score (-0.5 to 0.5)); higher = stronger / more preferred TF binding
Details: protein concentration: 100 nM; construct: GST-full length
Method in brief: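 Masliner-normalised scans of fluorescent anti-GST signal were the basis for scoring. That signal came from GST-tagged yeast transcription factors applied at about 100-200 nM to double-stranded universal all-10-mer Agilent arrays on fresh or once-stripped slides. Each ungapped eight-base word, pooled with its reverse complement, received an E-score from the Universal PBM Analysis Suite.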

Sequence | PBM E-score
ACAACCGG | -0.14
ATACTGTA | 0.224
CATTTGCC | -0.203
TTCTGAAA | 0.0212
AAACAACT | 0.139
CACCTCCC | -0.324
CGGTCAGC | 0.0507
AAATTAGC | 0.0331
GCCGAGCA | -0.174
GTATATCA | 0.0654
AAAGAGGA | -0.167
GGAGGTTA | -0.218
AGAAGGGA | -0.309
ACGGCCGC | -0.0289
GGAAGGGA | -0.191
CCGGATAA | 0.134
ATTTTTCG | 0.198
GGGTTCAA | -0.0708
CTCTCCCA | -0.186
GTTGGAGA | -0.0966
ACGGCAGG | -0.248
ATTTACTA | 0.161
GTATATGA | 0.111
CTATTGTC | 0.0269
ACGGGAAT | -0.104

3 entries picked at random from those above:
Sequence | PBM E-score
CTATTGTC | 0.0269
TTCTGAAA | 0.0212
GGAGGTTA | -0.218

Following part.

Sequence | PBM E-score
ACCAAGTA | 0.119
GATGGAAA | 0.0371
TCCTCTCA | -0.0672
GTTGTGAA | 0.0473
GGGTCTAA | -0.109
GTCGGGTA | -0.0198
CTTAGATA | 0.23
ATACCGTA | 0.0493
ATGGCCAT | 0.0852
AATCGCCT | 0.124
CTGTTCGC | 0.0508
GTTACTAA | 0.168
GCCCACCC | 0.191
CTGGGGTA | -0.0795
GGCCTACA | -0.0994
CCGTACAG | -0.169
CGGGGAAC | -0.0378
AAAATCGC | 0.0818
CCAAACTC | 0.112
AACGCTCG | -0.0334
GATGGGGC | -0.041
ACCCGCGC | 0.2
CGACCTAC | -0.23
AACAATCA | 0.167
CAATCACA | 0.0639

Sequence | PBM E-score
ATGAATTC | 0.175
AAACCCAA | 0.223
ATCATAGG | -0.0596
TGTGTAAA | 0.0976
ACCGTAGT | -0.125
CACTTTCC | 0.14
ACCCGAAG | -0.094
GCGTTAGC | -0.0129
GAGACGAC | -0.188
CAAATTAC | 0.107
CTTAGGAA | 0.0323
AGGTGTCA | 0.0947
TGTTCAAA | 0.0813
GGGTGCGA | -0.101
CCATACAA | 0.11
AAAAATCA | 0.164
GTTCAGGA | -0.0216
CCGAAAAA | 0.106
TCAACTAA | 0.136
GACGTTAA | 0.14
AGAGTAAC | -0.064
ACGATAGG | -0.091
GTCTGGCA | -0.182
AACTTAGG | 0.0035
GCTAGAGA | 0.0134

Sequence | PBM E-score
GAGATGAA | -0.045
AAAATAGG | 0.192
CCGGCGCC | -0.0319
GAAAGACC | -0.21
CGACTCTC | -0.119
ACGGTTCG | -0.122
CTGTGTAA | 0.00241
TAGGGAAA | -0.0611
AATCATAT | 0.193
CAGGATAC | -0.125
CTTTCATA | 0.168
GTGACAAC | 0.192
AAGCCTCC | -0.0716
ACGTTCGA | -0.127
AAAATGTA | 0.155
ATGACCAG | 0.0221
AGATGAAC | 0.131
CTTGATTA | 0.222
GGTGGACA | 0.0474
AAATTCGG | 0.139
CTATATCA | 0.195
ATAGAGTG | 0.0858
CCCGCTCC | -0.407
CAGGCACG | -0.0572
AAGGCCGC | -0.141

Some of the entries above, set out differently.

| Sequence | PBM E-score |
| --- | --- |
| CTCTCCCA | -0.186 |
| GTTGGAGA | -0.0966 |
| ACGGCAGG | -0.248 |
| ATTTACTA | 0.161 |
| GTATATGA | 0.111 |

The list continues.

Sequence | PBM E-score
AGATTGGC | -0.123
CGGGGTTA | 0.106
GGTTGCGA | 0.0424
AAGTTGCG | 0.0948
AATGTTGC | 0.0262
ATAGCAAT | 0.236
CCCAGGGG | -0.286
ACAAGACT | -0.039
GGTAGCCA | -0.0008
AGAGCAGG | -0.0422
TATCGAGA | 0.0397
CTGACCAC | 0.0212
GCCAAGAC | -0.0683
ATTCGCCA | 0.219
AAAATCTC | 0.0967
CTTCGAGC | -0.0333
CATTAAAA | 0.248
ATGCTAAT | 0.154
CGTGATGA | -0.0266
GAGCTTAC | 0.191
AAGTCGCT | -0.117
GGAGGCCC | -0.383
CGCCGGGC | 0.00796
TCACCTCA | 0.0413
TATTGTAA | 0.154

Sequence | PBM E-score
CGGCTCAA | 0.0671
AGGCCTCC | -0.215
ATTGGCTG | -0.141
GGATTCAC | 0.0079
GCTAACCA | -0.182
AGCCCTAG | -0.0694
GACCAAAA | 0.129
GCGGATAA | 0.23
AACTCAGT | 0.0563
CCCGGGGC | -0.24
ATGTACAC | 0.08
GAACCATC | 0.077
CACGCGGA | 0.221
CCCTGACG | -0.106
AAAGCATA | 0.0544
ATCTATAA | 0.0358
GGGCTCCA | -0.356
CAGGTACA | -0.0853
CATATTCC | -0.0533
CCACCCAG | 0.0499
AACTACAC | 0.058
CCGCCAAA | 0.154
TACACAAA | 0.133
GTATGGAA | -0.0473
GATAGTCA | 0.0148

Sequence | PBM E-score
GCTCTTAA | -0.0595
GGGGTAGA | 0.126
CCTGTGAA | 0.113
AATAGCTA | 0.122
GGCTGAAC | -0.0795
GCGTCTTA | -0.173
ATGAAATG | 0.163
CCGACACC | -0.303
AGGAAGTG | 0.0864
GTACGTGA | -0.117
ACGATGCC | -0.373
ATCAACAA | 0.2
CTAAAGCC | -0.254
ATAAGTTG | 0.079
ACGACGTA | -0.0239
GCGCAACA | -0.0833
CCGGTAAC | -0.0256
ATACGGTG | 0.0771
AACTACCT | 0.143
CGTGTTAG | 0.112
GCATGTTA | 0.145
GAAAGGTC | -0.117

— the supplement of paper PMC3334620
